Data: patent US20090036380A1, “Composition And Method For Brain Tumor Therapy” (Yeda Research and Development Co., Ltd., priority 2006, published 2009)
At least one compound was matched to its structure with a doubt left.

System: PC12 cells
Assay: Effect of pathway proteins and inhibitors on Karet-induced cell death in PC12 cells
Format: cell-based, rat
Conditions: PC12 electroporated with Karet, 50 nanomolar SP600125

In the case of `Oc1c2ccccc2c2c3c(cccc13)N=N2` [SB600125], the “effect on cell death induction by Karet” value is reported as “did not affect cell death induction”.
